{"source": "patent EP0303387B1", "about": "“Kynurenic acid derivatives useful in the treatment of neurodegenerative disorders” (MERCK SHARP & DOHME LTD., priority 1987, dated 1989)", "key": {"[1]": {"system": "quisqualate receptors", "assay": "antagonism of responses to quisqualate, rat cortical slice preparation", "format": "cell-based", "conditions": "apparent equilibrium constant (Kb) calculated from righthand shift in the agonist concentration-response curve, read-out: quisqualate antagonist activity at concentrations (Kb)"}, "[2]": {"system": "kainate receptors", "assay": "antagonism of responses to kainate, rat cortical slice preparation", "format": "cell-based", "conditions": "apparent equilibrium constant (Kb) calculated from righthand shift in the agonist concentration-response curve, read-out: kainate antagonist activity at concentrations (Kb)"}}, "note": "Some results were stated once for a whole list of compounds, not compound by compound."}
{"smiles": "O=C(O)c1cc(=O)c2c(F)cccc2[nH]1", "note": "[5-Fluoro-4-oxo-1,4-dihydroquinoline-2-carboxylic acid]", "values": [{"measurement": "Kb", "setting": "[1]", "value": "< 100", "unit": "µM"}, {"measurement": "Kb", "setting": "[2]", "value": "< 100", "unit": "µM"}]}
{"smiles": "O=C(O)c1cc(=O)c2cc(Br)ccc2[nH]1", "note": "[6-bromo-4-oxo-1,4-dihydroquinoline-2-carboxylic acid]", "values": [{"measurement": "Kb", "setting": "[1]", "value": "< 100", "unit": "µM"}]}
{"smiles": "O=C(O)c1cc(=O)c2cc(I)ccc2[nH]1", "note": "[6-iodo-4-oxo-1,4-dihydroquinoline-2-carboxylic acid]", "values": [{"measurement": "Kb", "setting": "[1]", "value": "< 100", "unit": "µM"}, {"measurement": "Kb", "setting": "[2]", "value": "< 100", "unit": "µM"}]}
{"smiles": "O=C(O)c1cc(=O)c2ccc(Cl)cc2[nH]1", "note": "[7-chloro-4-oxo-1,4-dihydroquinoline-2-carboxylic acid]", "values": [{"measurement": "Kb", "setting": "[1]", "value": "< 100", "unit": "µM"}, {"measurement": "Kb", "setting": "[2]", "value": "< 100", "unit": "µM"}]}
{"smiles": "Cc1ccc2c(=O)cc(C(=O)O)[nH]c2c1", "note": "[7-methyl-4-oxo-1,4-dihydroquinoline-2-carboxylic acid]", "values": [{"measurement": "Kb", "setting": "[2]", "value": "< 100", "unit": "µM"}]}
{"smiles": "CSc1ccc2[nH]c(C(=O)O)cc(=O)c2c1", "note": "[6-Methylthio-4-oxo-1,4-dihydroquinoline-2-carboxylic acid]", "values": [{"measurement": "Kb", "setting": "[1]", "value": "< 100", "unit": "µM"}, {"measurement": "Kb", "setting": "[2]", "value": "< 100", "unit": "µM"}]}
{"smiles": "O=C(O)c1cc(=O)c2cc([N+](=O)[O-])ccc2[nH]1", "note": "[6-nitro-4-oxo-1,4-dihydroquinoline-2-carboxylic acid]", "values": [{"measurement": "Kb", "setting": "[1]", "value": "< 100", "unit": "µM"}, {"measurement": "Kb", "setting": "[2]", "value": "< 100", "unit": "µM"}]}
{"smiles": "O=C(O)c1cc(=O)c2c(Cl)cccc2[nH]1", "note": "[5-chloro-4-oxo-1,4-dihydroquinoline-2-carboxylic acid]", "values": [{"measurement": "Kb", "setting": "[1]", "value": "< 100", "unit": "µM"}]}
{"smiles": "COc1ccc2[nH]c(C(=O)O)cc(=O)c2c1", "note": "[6-methoxy-4-oxo-1,4-dihydroquinoline-2-carboxylic acid]", "values": [{"measurement": "Kb", "setting": "[1]", "value": "< 100", "unit": "µM"}, {"measurement": "Kb", "setting": "[2]", "value": "< 100", "unit": "µM"}]}
{"smiles": "O=C(O)c1cc(=O)c2c(Cl)c(Cl)c(Cl)cc2[nH]1", "note": "[5,6,7-Trichloro-4-oxo-1,4-dihydroquinoline-2-carboxylic acid]", "values": [{"measurement": "Kb", "setting": "[1]", "value": "< 100", "unit": "µM"}, {"measurement": "Kb", "setting": "[2]", "value": "< 100", "unit": "µM"}]}
{"smiles": "O=C(O)c1cc(=O)c2cc(F)ccc2[nH]1", "note": "[6-fluoro-4-oxo-1,4-dihydroquinoline-2-carboxylic acid]", "values": [{"measurement": "Kb", "setting": "[1]", "value": "< 100", "unit": "µM"}, {"measurement": "Kb", "setting": "[2]", "value": "< 100", "unit": "µM"}]}
{"smiles": "O=C(O)c1cc(=O)c2cc(Cl)ccc2[nH]1", "note": "[6-chloro-4-oxo-1,4-dihydroquinoline-2-carboxylic acid]", "values": [{"measurement": "Kb", "setting": "[1]", "value": "< 100", "unit": "µM"}, {"measurement": "Kb", "setting": "[2]", "value": "< 100", "unit": "µM"}]}
{"smiles": "Cc1ccc2[nH]c(C(=O)O)cc(=O)c2c1", "note": "[6-methyl-4-oxo-1,4-dihydroquinoline-2-carboxylic acid]", "values": [{"measurement": "Kb", "setting": "[1]", "value": "< 100", "unit": "µM"}, {"measurement": "Kb", "setting": "[2]", "value": "< 100", "unit": "µM"}]}
